Values from PubChem BioAssay AID504808 (Drosophila RNAi Screening Center, 2011).
The screen tested about 21,000 reagents; below is a random part of those with a known target gene and a result. In the full data, 18 (0.084%) were called active. 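Raw counts without plate normalisation, one of two replicates; the ratio scores behind the calls were not deposited.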 Reagents against one gene are numbered here. A plus sign joins genes that one reagent is predicted to hit. Not stated in the record: the amount of reagent, the time to read-out.

Assay: 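Chromatin factors that keep E2F targets switched off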 (primary screen)
Cell system: Drosophila S2 cells
Reagent: long dsRNA against Drosophila genes
Measured: 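Firefly luciferase driven by E2F sites, normalised to Renilla luciferase on the same minimal promoter, measured by plate reader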
Direction: E2F firefly: higher = more E2F reporter activity; Renilla normaliser: higher = more normaliser reporter signal
Hit rule: 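a knock-down counted as active when the firefly/Renilla E2F signal rose above 50%, a threshold chosen arbitrarily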

gene knocked down | reagent | E2F firefly, rep 1 | Renilla normaliser, rep 1 | activity call
CG13937 | 1 | 55169 | 3572 | inactive
pwn (pawn) | 1 | 1.43e5 | 5002 | inactive
CG9776 | 1 | 80561 | 3746 | inactive
loh (lonely heart) | 1 | 1.43e5 | 5981 | inactive
loh (lonely heart) | 2 | 1.36e5 | 4495 | inactive
lsn (larsen) | 1 | 1.22e5 | 6852 | inactive
CG8064 | 1 | 76188 | 5038 | inactive
Adsl (Adenylosuccinate lyase) | 1 | 62986 | 3469 | inactive
beag | 1 | 65337 | 3693 | inactive
CG34454 | 1 | 1.25e5 | 3774 | inactive
DppIII (Dipeptidyl aminopeptidase III) | 1 | 1.20e5 | 5471 | inactive
sordd2 + sordd1 | 1 | 6672 | 732 | inactive
MFS9 (Major Facilitator Superfamily Transporter 9) | 1 | 60092 | 3810 | inactive
Vm26Ac (Vitelline membrane 26Aac) | 1 | 1.44e5 | 5202 | inactive
tplus3a + tplus3b | 1 | 1.17e5 | 4821 | inactive
CG9953 | 1 | 85481 | 3522 | inactive
CG17187 | 1 | 1.17e5 | 5876 | inactive
CG33282 | 1 | 1.55e5 | 4929 | inactive
Cpr47Ec (Cuticular protein 47Ec) | 1 | 1.01e5 | 4151 | inactive
Clbn (Caliban) | 1 | 1.22e5 | 6520 | inactive
Cyp4ac1 (Cytochrome P450 4ac1) | 1 | 93865 | 3742 | inactive
CG9521 | 1 | 2.29e5 | 6383 | inactive
Cpr47Eg (Cuticular protein 47Eg) | 1 | 93373 | 3901 | inactive
Nmnat (Nicotinamide mononucleotide adenylyltransferase) | 1 | 1.17e5 | 6038 | inactive
CG10376 | 1 | 80985 | 4373 | inactive
GAPsec (GTPase activating protein, SECIS-dependent read-through) | 1 | 70513 | 2958 | inactive
CG7443 | 1 | 1.46e5 | 6753 | inactive
ndl (nudel) | 1 | 88180 | 3614 | inactive
Ctl2 (Choline transporter-like 2) | 1 | 1861 | 1104 | inactive
CG31544 (retired record) | 1 | 64300 | 3845 | inactive
CG7695 | 1 | 1.33e5 | 6713 | inactive
cocoon | 1 | 1.54e5 | 7369 | inactive
CG42516 + Pbp49 | 1 | 2642 | 238 | inactive
aspr (asperous) | 1 | 1.39e5 | 7209 | inactive
aspr (asperous) | 2 | 1.42e5 | 242 | inactive
clos (closca) | 1 | 1.51e5 | 4787 | inactive
clos (closca) | 2 | 1.43e5 | 5253 | inactive
clos (closca) | 3 | 1.40e5 | 4989 | inactive
Dll (Distal-less) | 1 | 92509 | 3675 | inactive
CG2269 | 1 | 3067 | 196 | inactive
Cap-H2 (Chromosome associated protein H2) | 1 | 75797 | 3249 | inactive
Mpp6 (M-phase phosphoprotein 6) | 1 | 1.07e5 | 4914 | inactive
CNBP (CCHC-type zinc finger nucleic acid binding protein) | 1 | 1.08e5 | 4972 | inactive
CNBP (CCHC-type zinc finger nucleic acid binding protein) | 2 | 75387 | 3333 | inactive
Pbp45 (PSEA-binding protein 45kD) | 1 | 1.19e5 | 6754 | inactive
Vha14-1 (Vacuolar H[+] ATPase 14kD subunit 1) | 1 | 95261 | 3820 | inactive

Records above whose target name starts with D or d (2):
gene knocked down | reagent | E2F firefly, rep 1 | Renilla normaliser, rep 1 | activity call
DppIII (Dipeptidyl aminopeptidase III) | 1 | 1.20e5 | 5471 | inactive
Dll (Distal-less) | 1 | 92509 | 3675 | inactive

The list goes on:
gene knocked down | reagent | E2F firefly, rep 1 | Renilla normaliser, rep 1 | activity call
atlas | 1 | 1.05e5 | 3982 | inactive
Tom40 (Translocase of outer membrane 40) | 1 | 34293 | 2717 | inactive
rod (rough deal) | 1 | 59174 | 5063 | inactive
CG15649 | 1 | 1.01e5 | 4710 | inactive
CG17378 | 1 | 1.41e5 | 5061 | inactive
NijC (Ninjurin C) | 1 | 1.43e5 | 6549 | inactive
Mat89Ba (Maternal transcript 89Ba) | 1 | 75397 | 3488 | inactive
Aatf (Apoptosis antagonizing transcription factor) | 1 | 1.55e5 | 5684 | inactive
CG2267 | 1 | 1.30e5 | 6466 | inactive
grp + CG31782 (retired record) | 1 | 84631 | 3557 | inactive
Itpr (Inositol 1,4,5,-trisphosphate receptor) | 1 | 1.37e5 | 6221 | inactive
onecut | 1 | 1.29e5 | 6162 | inactive
CG12661 | 1 | 97294 | 4499 | inactive
rib (ribbon) | 1 | 70010 | 3443 | inactive
CG4297 | 1 | 1.90e5 | 6176 | inactive
Slik (Sterile20-like kinase) | 1 | 84643 | 3075 | inactive
Atg5 (Autophagy-related 5) | 1 | 8207 | 804 | inactive
CG15021 | 1 | 89634 | 3513 | inactive
Spps (Sp1-like factor for pairing sensitive-silencing) | 1 | 70999 | 3435 | inactive
CCHa1-R (CCHamide-1 receptor) | 1 | 1.60e5 | 5363 | inactive
CCHa1-R (CCHamide-1 receptor) | 2 | 1.48e5 | 5212 | inactive
CG17154 | 1 | 1.28e5 | 7966 | inactive
CG31373 | 1 | 1.33e5 | 5989 | inactive
Orct (Organic cation transporter) | 1 | 73255 | 3803 | inactive
hpo (hippo) | 1 | 70023 | 3442 | inactive
CCKLR-17D1 (Cholecystokinin-like receptor at 17D1) | 1 | 1.50e5 | 6758 | inactive
CCKLR-17D1 (Cholecystokinin-like receptor at 17D1) | 2 | 1.47e5 | 6221 | inactive
CCKLR-17D1 (Cholecystokinin-like receptor at 17D1) | 3 | 1.35e5 | 5610 | inactive
CaBP1 (calcium-binding protein 1) | 1 | 74184 | 3560 | inactive
CG42597 | 1 | 1.19e5 | 4776 | inactive
Amy-d + Amy-p | 1 | 1.31e5 | 7043 | inactive
ItgaPS5 (Integrin alphaPS5 subunit) | 1 | 99589 | 4171 | inactive
CG2121 | 1 | 2433 | 210 | inactive
CG2121 | 2 | 1.41e5 | 4752 | inactive
Mau2 | 1 | 68830 | 3253 | inactive
Pus10 (Pseudouridine synthase 10) | 1 | 1.02e5 | 4034 | inactive
CG13919 | 1 | 92518 | 4267 | inactive
mdlc (midlife crisis) | 1 | 68527 | 4445 | inactive
